{
  "source": "patent US20240148895A1",
  "about": "(Eisai R&D Management Co., Ltd., priority 2022, published 2024)",
  "assay": "Fmoc solid-phase peptide synthesis; 2-chlorotrityl chloride resin; HATU",
  "settings": "whole synthesis, scale 50 mmol, formate",
  "data": [
    {"substance": "(10S,17S,20S)-10-((((9H-Fluoren-9-yl)methoxy)carbonyl)amino)-17-isopropyl-2,2-dimethyl-4,11,15,18-tetraoxo-20-(3-ureidopropyl)-3-oxa-5,12,16,19-tetraazahenicosan-21-oic acid", "values": [
      {"measurement": "crude mass", "value": 36.0, "unit": "g"}
    ]}
  ]
}
